At least one read-out could not be matched to a standard name with certainty.
System: hormone-sensitive human MCF-7 breast cancer cells
Experiment: Cytostatic activity on hormone-sensitive human MCF-7 breast cancer cells (T/C of optical densities)
Type: cell-based
Conditions: mean of 16 determinations ± SD

CC/C(=C(\c1ccccc1)c1ccc(OCCN(C)C)cc1)c1ccccc1 [Tamoxifen, tamoxifen, reference compound]
T/C [%] (substance concentration 1 · 10^−5 M in the incubation medium): −37.2 ± 8.9%
T/C [%] (substance concentration 1 · 10^−6 M in the incubation medium): 19.5 ± 9.3%
T/C [%] (substance concentration 1 · 10^−7 M in the incubation medium): 40.7 ±14.6%
T/C [%] (substance concentration 6 · 10^−6 M in the incubation medium): 2.5 ± 6.0%
